From PMC11289419

The chains behind the UniProt entries cited, without tags or fusion partners. Where a name states a change or a piece, a line headed by the entry shows the natural chain unless it says otherwise.
UniProt P22629: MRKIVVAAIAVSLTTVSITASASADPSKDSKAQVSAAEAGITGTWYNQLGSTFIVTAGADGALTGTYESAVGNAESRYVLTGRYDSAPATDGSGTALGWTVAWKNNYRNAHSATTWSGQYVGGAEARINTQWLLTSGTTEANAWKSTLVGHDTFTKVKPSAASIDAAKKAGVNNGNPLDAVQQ
UniProt P04891: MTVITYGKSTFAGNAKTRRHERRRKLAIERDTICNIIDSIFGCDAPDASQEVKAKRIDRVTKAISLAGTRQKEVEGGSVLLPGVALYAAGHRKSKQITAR

Experiments:
[1] = molecular target: streptavidin (fluorescently labeled) (UniProt P22629); assay: fluorescence microscopy recruitment to RNA condensate; details: non-cognate, cross-binding only for TAT; Multi-stranded: 40 mM HEPES, 100 mM KCl, 500 mM NaCl, 5 uM strands (1.25 uM aptamer strand), 70 C melt, 12 h hold (50 C), imaged after 20 C; commercial protein; protein details: fluorescent label
[2] = molecular target: P22 N peptide (bacteriophage P22) (UniProt P04891); assay: as above; details: Multi-stranded: 40 mM HEPES, 100 mM KCl, 500 mM NaCl, 5 uM strands (1.25 uM aptamer strand), 70 C melt, 12 h hold (50 C), imaged after 20 C

Sequence: GGUGCGCUGACAAAGCGCGCCGAGCUCAGAGUCUCUGGUCGCCAAGCUUAUCGGACACUG / GAGCUCAAGUAGGCACAUCAGCAAGGCGACCAGAGACUC / GAGCUCAUGCGUGGAGACAACGAAGCUGAUGUGCCUACU / GAGCUCACAGUGUCCGAUAAGCAACGUUGUCUCCACGCA [4m5 nanostar with P22 boxB]
- binding result [1]: no binding

Sequence: GAUGCGGCCGCCGACCAGAAUCAUGCAAGUGCGUAAGAUAGUCGCGGGUCGGCGGCCGCAUCGCGCAUCCACGGCGUGUCGCAAGACGCCGACGCGUCG / GCGCAGUCGGGAUAUACCGGAAGCGACACGCCGUGGA / GCGCAAGUCCACAGUGGCGCAACCGGUAUAUCCCGAC / GCGCACGACGCGUCGGCGUCAAGCGCCACUGUGGACU [4m3 nanostar with streptavidin aptamer]
- binding result ([2]; non-cognate, cross-binding only for TAT): no binding

Sequence: GCGAGAGCGCUGCCCAAGCGCGUAGGGCAGCGCUCUCGCAAGCGAUGAACGUAGGGAAGCGCGUACCCUACGUUCAUCGCAAGCGUUCACACUGACCAAGCGCGUAGGUCAGUGUGAACGCAAGGUGCGCUGACAAAGCGCGCC [3sv2_BoxB (stem1)]
- binding result ([2]; co-transcriptional condensates, peptide present from start or added after): binds

A negative result means that nothing was seen under these conditions. At least one verdict rests on a figure or table, not on a statement of the authors. For part of these data: The exact form of at least one protein or probe is not confirmed.
